This note sets out measurements from PMC4422300.

No constants are given. Whether binding was seen depends on the method and setting. Binding seen in cells or lysates may run through a third protein. Some results given as binding are weak or reduced against the parent protein; the word gives no strength.

This test deals with T1, Checkpoint kinase Chk1 (human (endogenous in HCT116)) (UniProt O14757).
T1 sequence: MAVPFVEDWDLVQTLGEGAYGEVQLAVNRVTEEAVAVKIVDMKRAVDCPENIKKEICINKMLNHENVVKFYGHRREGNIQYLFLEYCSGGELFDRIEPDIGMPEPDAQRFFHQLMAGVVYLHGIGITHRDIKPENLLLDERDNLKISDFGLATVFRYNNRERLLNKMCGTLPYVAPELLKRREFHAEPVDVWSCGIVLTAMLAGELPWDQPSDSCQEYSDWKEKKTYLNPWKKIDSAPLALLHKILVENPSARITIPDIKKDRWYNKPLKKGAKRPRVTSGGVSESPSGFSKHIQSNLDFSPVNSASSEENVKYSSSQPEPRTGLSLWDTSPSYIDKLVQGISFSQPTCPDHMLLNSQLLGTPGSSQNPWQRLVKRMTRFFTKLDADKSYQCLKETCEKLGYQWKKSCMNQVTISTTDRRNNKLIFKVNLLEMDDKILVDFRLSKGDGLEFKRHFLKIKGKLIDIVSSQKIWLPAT
Put plainly: co-IP; mitochondrial extracts (± UV); immunoprecipitation with anti-Chk1 ab, immunoblot for BAK, PUMA, Bcl-xL. For orientation: Immunoblotting shows a protein as a band on a membrane.

Turning to Bcl-xL (from UniProt Q07817-1 1-233), the binding entry is “binds”.
